Values of other authors in patent US20040236519A1, “Libraries of confomationally constrained peptides, chiral azacrowns, and peptidomimetics and methods of making the same” (priority 2001, published 2004).
At least one compound was matched to its structure with a doubt left.

Biological target: Potassium Channel, Ca2+ Act., VI
Settings: reference compound; radioligand [125I]Apamin; read-out: Ki (M) Ref. Cpd.; cited from earlier work

## CC(C)C[C@@H]1NC(=O)[C@H](C)NC(=O)[C@H]([C@@H](C)O)NC(=O)[C@H](CCC(=O)O)NC(=O)[C@@H]2CCCN2C(=O)[C@H](C)NC(=O)[C@H](CCCCN)NC(=O)[C@@H]2CSSC[C@@H](C(=O)N[C@@H](CCC(N)=O)C(=O)N[C@@H](CCC(N)=O)C(=O)N[C@@H](Cc3cnc[nH]3)C(N)=O)NC(=O)[C@H](CCCNC(=N)N)NC(=O)[C@H](CCCNC(=N)N)NC(=O)[C@H](C)NC(=O)[C@H](CSSC[C@H](N)C(=O)N[C@@H](CC(N)=O)C(=O)N2)NC1=O [Apamin]
  Ki: 5.05e-11 M
